Test results published in article PMC12077902.
These are yes or no findings as the source states them, for the method shown. In cells and extracts the contact can be indirect. These calls come from enrichment with a bait or labelling near it, and not all partners need be listed.

By UniProt entry, the sequences of proteins in these tests, tags left out.
UniProt P61088: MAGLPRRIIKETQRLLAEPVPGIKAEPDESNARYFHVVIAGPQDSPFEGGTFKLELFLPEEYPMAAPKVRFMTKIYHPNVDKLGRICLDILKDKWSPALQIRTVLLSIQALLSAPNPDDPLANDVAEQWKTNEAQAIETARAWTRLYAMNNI
UniProt Q9Y6K9: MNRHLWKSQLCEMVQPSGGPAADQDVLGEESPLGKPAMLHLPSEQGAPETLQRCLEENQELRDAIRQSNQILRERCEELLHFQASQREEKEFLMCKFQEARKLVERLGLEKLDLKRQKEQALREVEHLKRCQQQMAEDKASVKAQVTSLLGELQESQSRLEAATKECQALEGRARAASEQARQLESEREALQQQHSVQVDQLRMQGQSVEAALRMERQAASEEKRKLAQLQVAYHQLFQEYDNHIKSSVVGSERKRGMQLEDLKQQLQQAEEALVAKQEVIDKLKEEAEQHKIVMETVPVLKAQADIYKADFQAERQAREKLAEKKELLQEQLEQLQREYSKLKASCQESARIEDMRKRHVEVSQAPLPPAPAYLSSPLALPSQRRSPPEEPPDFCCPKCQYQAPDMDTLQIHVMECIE
UniProt Q16539: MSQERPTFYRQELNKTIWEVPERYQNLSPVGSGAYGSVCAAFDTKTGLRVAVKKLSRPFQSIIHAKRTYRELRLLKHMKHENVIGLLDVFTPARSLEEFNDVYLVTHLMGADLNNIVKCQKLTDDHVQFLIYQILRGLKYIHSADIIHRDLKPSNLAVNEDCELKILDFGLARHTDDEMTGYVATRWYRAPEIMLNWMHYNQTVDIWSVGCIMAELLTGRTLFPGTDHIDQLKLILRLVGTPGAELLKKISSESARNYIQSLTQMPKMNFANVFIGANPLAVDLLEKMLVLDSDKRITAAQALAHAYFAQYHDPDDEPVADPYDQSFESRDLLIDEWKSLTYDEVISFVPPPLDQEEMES
UniProt P19838: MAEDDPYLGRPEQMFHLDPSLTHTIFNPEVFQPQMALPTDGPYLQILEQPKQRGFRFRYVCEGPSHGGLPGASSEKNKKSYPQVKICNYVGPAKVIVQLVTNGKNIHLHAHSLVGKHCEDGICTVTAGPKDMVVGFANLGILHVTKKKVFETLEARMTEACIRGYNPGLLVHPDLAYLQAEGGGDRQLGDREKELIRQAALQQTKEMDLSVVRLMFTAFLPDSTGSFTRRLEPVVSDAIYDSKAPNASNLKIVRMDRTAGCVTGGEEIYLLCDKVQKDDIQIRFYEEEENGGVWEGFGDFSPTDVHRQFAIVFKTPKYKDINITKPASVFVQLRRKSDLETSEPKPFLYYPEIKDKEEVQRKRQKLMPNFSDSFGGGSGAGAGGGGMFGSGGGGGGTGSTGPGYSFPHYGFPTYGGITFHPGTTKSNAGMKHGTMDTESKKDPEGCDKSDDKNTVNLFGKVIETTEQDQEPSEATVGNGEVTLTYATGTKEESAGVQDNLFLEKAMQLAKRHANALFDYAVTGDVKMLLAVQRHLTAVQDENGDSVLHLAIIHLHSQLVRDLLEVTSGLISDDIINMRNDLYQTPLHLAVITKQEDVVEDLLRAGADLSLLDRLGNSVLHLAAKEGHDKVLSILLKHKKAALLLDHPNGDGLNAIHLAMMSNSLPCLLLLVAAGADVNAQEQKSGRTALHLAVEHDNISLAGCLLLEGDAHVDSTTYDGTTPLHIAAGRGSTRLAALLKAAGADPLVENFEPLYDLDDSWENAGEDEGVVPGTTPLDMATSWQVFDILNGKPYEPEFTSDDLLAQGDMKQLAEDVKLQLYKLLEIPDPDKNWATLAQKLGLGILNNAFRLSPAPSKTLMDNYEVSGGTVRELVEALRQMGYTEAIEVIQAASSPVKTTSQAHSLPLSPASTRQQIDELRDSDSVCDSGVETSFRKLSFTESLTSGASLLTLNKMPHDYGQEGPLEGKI

The substances below were run against UBE2N-V5-APEX2 (UniProt P61088) (assay: proximity labelling; doxycycline-inducible UBE2N-V5-APEX2; biotin phenol and hydrogen peroxide; biotinylated proteins pulled down and analysed by LC-MS/MS; compared with the DOX-untreated sample).

| Substance | binding |
| --- | --- |
| IKBKG/IKKγ (from UniProt Q9Y6K9 1-419) | binds |
| MAPK14 (from UniProt Q16539 1-360) | binds |
| NFKB1 (from UniProt P19838 1-968) | binds |
